Consider one substance from paper PMC9610083.

By UniProt entry, the sequences of proteins in these tests, tags left out.
UniProt P14635: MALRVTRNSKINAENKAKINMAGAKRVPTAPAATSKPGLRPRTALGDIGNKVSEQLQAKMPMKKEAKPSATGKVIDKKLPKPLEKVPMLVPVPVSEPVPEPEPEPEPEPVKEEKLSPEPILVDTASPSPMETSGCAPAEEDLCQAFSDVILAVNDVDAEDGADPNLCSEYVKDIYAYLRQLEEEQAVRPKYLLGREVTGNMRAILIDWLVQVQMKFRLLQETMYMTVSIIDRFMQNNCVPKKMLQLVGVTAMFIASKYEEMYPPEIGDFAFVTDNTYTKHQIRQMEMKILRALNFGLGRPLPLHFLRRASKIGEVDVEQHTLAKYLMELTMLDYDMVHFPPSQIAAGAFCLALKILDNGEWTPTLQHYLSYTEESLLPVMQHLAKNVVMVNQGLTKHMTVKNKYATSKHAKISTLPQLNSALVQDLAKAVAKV

For assay [1], the target named is cyclin B1 (human (endogenous in HFF)) (UniProt P14635). Description: condition: only with 40 µM 3MB-PP1 (4 h before harvest and during cell lysis); co-IP; lysates of HFF infected with BAD-UL97-as1 (MOI 0.5, 4 d.p.i.), treated with 40 µM 3MB-PP1 from 4 h before harvest and again during lysis; cyclin B1 immunoprecipitated with pAb-cyclin B1, pUL97 detected by Western blot; two biological replicates. Background: A western blot detects proteins with antibodies after separation by electrophoresis.

The target is the same in assay [2]. Briefly: co-IP; lysates of HFF infected with BADwt or BAD-UL97-as1 (MOI 0.5, 4 d.p.i.); cyclin B1 immunoprecipitated with pAb-cyclin B1, pUL97 detected by Western blot; DMSO solvent control, and for BADwt also 40 µM 3MB-PP1 from 4 h before harvest and during lysis; two biological replicates.

No constants are given. Whether binding was seen depends on the method and setting. In cells and extracts the contact can be indirect. Some results given as binding are weak or reduced against the parent protein; the word gives no strength.

As for “analog-sensitive HCMV protein kinase pUL97-as1 (H411G), expressed by recombinant BAD-UL97-as1 (from UniProt P16788 1-707) (enzyme)”, the binding result in assay [1] is “no binding”; in assay [2], “binds”.
